Experimental findings from PMC5694551, “Kir2.1-Nav1.5 Channel Complexes Are Differently Regulated than Kir2.1 and Nav1.5 Channels Alone” (Frontiers in Physiology, 2017) are described below.

Results are given in words; binding and its absence hold for the method and conditions named. In cells and extracts the contact can be indirect. Some entries that bind do so weakly or less than the wild type.

In the experiment the target is Nav1.5 channels of rat ventricular myocytes (rat (endogenous in ventricular myocytes)) (UniProt P15389). Briefly: proximity ligation; Duolink PLA in fixed, non-permeabilized rat ventricular myocytes; primary antibodies against extracellular domains of Nav1.5 and Kir2.1; buffers without detergents; confocal microscopy; negative control without primary antibodies.

B1: Kir2.1 channels of rat ventricular myocytes (natural protein, rat (endogenous in ventricular myocytes), UniProt Q64273 1-427, looked up)
chain: MGSVRTNRYSIVSSEEDGMKLATMAVANGFGNGKSKVHTRQQCRSRFVKKDGHCNVQFINVGEKGQRYLADIFTTCVDIRWRWMLVIFCLAFVLSWLFFGCVFWLIALLHGDLDASKESKACVSEVNSFTAAFLFSIETQTTIGYGFRCVTDECPIAVFMVVFQSIVGCIIDAFIIGAVMAKMAKPKKRNETLVFSHNAVIAMRDGKLCLMWRVGNLRKSHLVEAHVRAQLLKSRITSEGEYIPLDQIDINVGFDSGIDRIFLVSPITIVHEIDEDSPLYDLSKQDIDNADFEIVVILEGMVEATAMTTQCRSSYLANEILWGHRYEPVLFEEKHCYKVDYSRFHKTYEVPNTPLCSARDLAEKKYILSNANSFCYENEVALTSKEEEDSENGVPESTSTDSPPGIDLHNQASVPLEPRPLRRESEI
notes: Kir2.1 inward rectifier K+ channel, endogenous at the membrane of Sprague-Dawley rat ventricular myocytes; source: endogenous, isolated rat ventricular myocytes (fixed, non-permeabilized)
In the case of B1, the binding result was “binds”.
